According to the M2OR odorant receptor database:
This is a selection; strong and weak results do not stand in their true shares. Calls are pooled over several reports, among them a noisy single-well screen. The list shows a part of the results. Some of the results follow.

What was measured:
Settings in all cases: stereoisomer not certain
OR56A5 (Homo sapiens) = biological target: T1, OR56A5 (Homo sapiens) (UniProt P0C7T3)
T1 sequence (whole entry): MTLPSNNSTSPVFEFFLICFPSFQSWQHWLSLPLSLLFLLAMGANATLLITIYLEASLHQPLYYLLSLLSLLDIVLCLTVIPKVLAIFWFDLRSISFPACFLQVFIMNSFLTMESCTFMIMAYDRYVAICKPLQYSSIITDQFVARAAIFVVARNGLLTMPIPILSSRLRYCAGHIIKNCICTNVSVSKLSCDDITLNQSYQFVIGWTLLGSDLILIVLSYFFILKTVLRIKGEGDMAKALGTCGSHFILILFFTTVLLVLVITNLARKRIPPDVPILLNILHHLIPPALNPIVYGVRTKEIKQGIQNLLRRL
Procedure, shortened: (§1)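 Values were gathered from published papers (main text and supplementary material), with extra details requested from the original authors when needed, and checked for typos and inconsistencies. Each receptor–molecule pair is called responsive (active) if the original authors judged the measured signal statistically different from baseline, and non-responsive (inactive) otherwise. Assay methods varied by source, often transient mammalian cell-line luciferase assays. Recorded details include cell line, G-protein, co-transfected protein and tags.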

OR5A1 [1] = system: T2, OR5A1
T2 sequence (whole entry): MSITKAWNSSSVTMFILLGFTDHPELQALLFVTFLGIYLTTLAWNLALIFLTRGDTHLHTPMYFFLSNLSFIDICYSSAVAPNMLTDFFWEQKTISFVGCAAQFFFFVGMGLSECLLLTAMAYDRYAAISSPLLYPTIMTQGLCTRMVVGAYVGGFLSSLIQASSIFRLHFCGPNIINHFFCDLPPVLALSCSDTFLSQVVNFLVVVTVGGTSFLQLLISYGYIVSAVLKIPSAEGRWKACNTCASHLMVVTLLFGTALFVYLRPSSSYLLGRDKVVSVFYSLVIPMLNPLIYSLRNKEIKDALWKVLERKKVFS
Procedure, shortened: as §1

OR5A1 [2] = system: T3, OR5A1; remark: listed apart in the source
T3 sequence (whole entry): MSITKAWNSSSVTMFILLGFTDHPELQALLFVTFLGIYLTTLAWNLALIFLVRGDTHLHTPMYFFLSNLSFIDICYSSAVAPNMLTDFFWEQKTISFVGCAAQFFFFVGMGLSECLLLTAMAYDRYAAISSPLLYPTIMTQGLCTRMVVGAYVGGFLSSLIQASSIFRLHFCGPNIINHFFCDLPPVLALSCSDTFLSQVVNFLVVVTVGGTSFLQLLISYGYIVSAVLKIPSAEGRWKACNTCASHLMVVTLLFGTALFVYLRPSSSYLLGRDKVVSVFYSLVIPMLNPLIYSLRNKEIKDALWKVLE
Procedure, shortened: as §1

OR5A1 [3] = system: T4, OR5A1; remark: listed apart in the source
T4 sequence (whole entry): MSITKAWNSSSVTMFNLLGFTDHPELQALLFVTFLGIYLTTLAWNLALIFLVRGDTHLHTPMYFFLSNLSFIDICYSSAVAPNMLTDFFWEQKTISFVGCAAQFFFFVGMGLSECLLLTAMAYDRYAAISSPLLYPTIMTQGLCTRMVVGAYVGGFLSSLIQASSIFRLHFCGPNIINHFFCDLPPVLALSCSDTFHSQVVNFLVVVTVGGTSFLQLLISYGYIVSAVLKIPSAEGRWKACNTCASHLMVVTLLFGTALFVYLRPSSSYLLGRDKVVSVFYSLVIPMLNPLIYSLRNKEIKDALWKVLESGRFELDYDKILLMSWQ
Procedure, shortened: as §1

OR5A2 (Homo sapiens) = biological target: T5, OR5A2 (Homo sapiens) (UniProt Q8NGI9)
T5 sequence (whole entry): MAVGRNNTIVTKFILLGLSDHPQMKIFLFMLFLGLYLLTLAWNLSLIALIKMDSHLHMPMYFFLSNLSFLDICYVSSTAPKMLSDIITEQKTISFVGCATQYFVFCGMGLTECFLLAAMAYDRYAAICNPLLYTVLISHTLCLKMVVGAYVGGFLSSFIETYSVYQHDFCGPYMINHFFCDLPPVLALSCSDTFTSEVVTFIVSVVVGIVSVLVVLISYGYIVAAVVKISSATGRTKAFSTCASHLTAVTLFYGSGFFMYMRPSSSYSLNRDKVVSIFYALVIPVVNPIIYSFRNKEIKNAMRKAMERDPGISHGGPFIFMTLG
Procedure, shortened: as §1

OR5AC2 (Homo sapiens) = biological target: T6, OR5AC2 (Homo sapiens) (UniProt Q9NZP5)
T6 sequence (whole entry): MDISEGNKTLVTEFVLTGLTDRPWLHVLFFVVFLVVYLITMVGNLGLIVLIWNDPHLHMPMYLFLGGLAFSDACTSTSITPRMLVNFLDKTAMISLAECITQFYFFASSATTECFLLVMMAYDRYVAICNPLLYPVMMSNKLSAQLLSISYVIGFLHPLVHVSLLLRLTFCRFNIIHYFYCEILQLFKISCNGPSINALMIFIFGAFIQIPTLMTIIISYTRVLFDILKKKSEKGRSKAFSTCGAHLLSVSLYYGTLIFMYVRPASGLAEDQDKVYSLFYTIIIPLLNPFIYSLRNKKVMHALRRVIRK
Procedure, shortened: as §1

OR5AK2 (Homo sapiens) = biological target: T7, OR5AK2 (Homo sapiens) (UniProt Q8NH90)
T7 sequence (whole entry): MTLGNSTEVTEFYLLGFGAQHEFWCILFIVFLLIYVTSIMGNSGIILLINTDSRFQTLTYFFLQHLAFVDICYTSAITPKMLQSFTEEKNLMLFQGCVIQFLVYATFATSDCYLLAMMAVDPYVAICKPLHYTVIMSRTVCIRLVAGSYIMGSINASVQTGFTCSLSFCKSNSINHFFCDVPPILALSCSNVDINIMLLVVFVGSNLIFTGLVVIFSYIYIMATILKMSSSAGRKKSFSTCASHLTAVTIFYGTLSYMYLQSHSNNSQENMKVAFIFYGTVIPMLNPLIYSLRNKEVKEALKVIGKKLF
Procedure, shortened: as §1

OR5AN1 (Homo sapiens) = biological target: T8, OR5AN1 (Homo sapiens) (UniProt Q8NGI8)
T8 sequence (whole entry): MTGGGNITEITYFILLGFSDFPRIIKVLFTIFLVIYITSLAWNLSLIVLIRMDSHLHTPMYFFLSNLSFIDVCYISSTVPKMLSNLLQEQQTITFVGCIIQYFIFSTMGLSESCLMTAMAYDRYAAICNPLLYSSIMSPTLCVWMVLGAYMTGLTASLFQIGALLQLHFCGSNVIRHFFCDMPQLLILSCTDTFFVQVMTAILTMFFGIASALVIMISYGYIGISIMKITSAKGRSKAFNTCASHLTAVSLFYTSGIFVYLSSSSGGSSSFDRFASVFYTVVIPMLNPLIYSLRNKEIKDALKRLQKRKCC
Procedure, shortened: as §1

OR5AR1 (Homo sapiens) = biological target: T9, OR5AR1 (Homo sapiens) (UniProt Q8NGP9)
T9 sequence (whole entry): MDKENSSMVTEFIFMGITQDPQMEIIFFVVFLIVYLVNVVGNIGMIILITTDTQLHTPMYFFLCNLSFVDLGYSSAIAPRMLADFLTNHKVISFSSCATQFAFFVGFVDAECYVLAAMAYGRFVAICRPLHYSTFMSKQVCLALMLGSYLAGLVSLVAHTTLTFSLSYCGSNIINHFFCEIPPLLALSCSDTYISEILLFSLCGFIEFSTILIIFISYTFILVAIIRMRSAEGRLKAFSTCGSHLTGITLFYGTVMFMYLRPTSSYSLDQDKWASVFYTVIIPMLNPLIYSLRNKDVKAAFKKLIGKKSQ
Procedure, shortened: as §1

OR5AS1 (Homo sapiens) = biological target: T10, OR5AS1 (Homo sapiens) (UniProt Q8N127)
T10 sequence (whole entry): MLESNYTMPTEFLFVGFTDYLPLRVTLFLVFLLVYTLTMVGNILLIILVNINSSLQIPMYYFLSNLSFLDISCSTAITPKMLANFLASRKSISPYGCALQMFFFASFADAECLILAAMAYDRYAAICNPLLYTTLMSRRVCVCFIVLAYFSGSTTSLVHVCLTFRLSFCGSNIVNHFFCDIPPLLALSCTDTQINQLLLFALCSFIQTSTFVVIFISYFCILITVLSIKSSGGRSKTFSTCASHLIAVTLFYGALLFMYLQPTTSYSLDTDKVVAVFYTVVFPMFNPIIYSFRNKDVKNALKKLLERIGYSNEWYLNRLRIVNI
Procedure, shortened: as §1

OR5AU1 (Homo sapiens) = biological target: T11, OR5AU1 (Homo sapiens) (UniProt Q8NGC0)
T11 sequence (whole entry): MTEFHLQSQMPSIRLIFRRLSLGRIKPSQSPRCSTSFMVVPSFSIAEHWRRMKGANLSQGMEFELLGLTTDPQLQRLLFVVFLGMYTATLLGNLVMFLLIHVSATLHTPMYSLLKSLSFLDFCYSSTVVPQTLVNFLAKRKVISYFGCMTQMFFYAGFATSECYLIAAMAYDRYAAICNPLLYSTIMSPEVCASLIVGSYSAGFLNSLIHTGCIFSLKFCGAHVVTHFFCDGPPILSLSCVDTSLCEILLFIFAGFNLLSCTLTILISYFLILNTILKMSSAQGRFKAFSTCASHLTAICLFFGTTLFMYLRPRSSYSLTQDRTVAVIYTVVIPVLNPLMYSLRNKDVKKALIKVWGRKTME
Procedure, shortened: as §1

OR5B17 (Homo sapiens) = biological target: T12, OR5B17 (Homo sapiens) (UniProt Q8NGF7)
T12 sequence (whole entry): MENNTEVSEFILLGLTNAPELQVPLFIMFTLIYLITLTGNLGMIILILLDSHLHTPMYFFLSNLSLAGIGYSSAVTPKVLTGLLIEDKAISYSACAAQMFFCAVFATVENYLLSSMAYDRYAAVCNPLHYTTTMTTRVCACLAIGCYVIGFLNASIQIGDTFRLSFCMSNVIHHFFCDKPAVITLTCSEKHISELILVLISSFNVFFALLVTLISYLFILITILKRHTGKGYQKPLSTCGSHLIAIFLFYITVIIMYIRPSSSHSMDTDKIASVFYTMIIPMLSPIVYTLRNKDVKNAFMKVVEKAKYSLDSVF
Procedure, shortened: as §1

SMILES: C=CC(C)(O)CCC=C(C)C (stereo not drawn)
- odorant receptor agonist call (OR56A5 (Homo sapiens)): active
- odorant receptor agonist call (OR5A1 [1]): inactive
- odorant receptor agonist call (OR5A1 [2]): inactive
- odorant receptor agonist call (OR5A1 [3]): inactive
- odorant receptor agonist call (OR5A2 (Homo sapiens)): inactive
- odorant receptor agonist call (OR5AC2 (Homo sapiens)): inactive
- odorant receptor agonist call (OR5AK2 (Homo sapiens)): inactive
- odorant receptor agonist call (OR5AN1 (Homo sapiens)): inactive
- odorant receptor agonist call (OR5AR1 (Homo sapiens)): inactive
- odorant receptor agonist call (OR5AS1 (Homo sapiens)): inactive
- odorant receptor agonist call (OR5AU1 (Homo sapiens)): inactive
- odorant receptor agonist call (OR5B17 (Homo sapiens)): inactive

SMILES: CCCCCCCC=CC=O
- odorant receptor agonist call (OR56A5 (Homo sapiens)): inactive
- odorant receptor agonist call (OR5A1 [1]): inactive
- odorant receptor agonist call (OR5A1 [2]): inactive
- odorant receptor agonist call (OR5A1 [3]): inactive
- odorant receptor agonist call (OR5A2 (Homo sapiens)): inactive
- odorant receptor agonist call (OR5AK2 (Homo sapiens)): inactive
- odorant receptor agonist call (OR5AN1 (Homo sapiens)): inactive
- odorant receptor agonist call (OR5AR1 (Homo sapiens)): inactive
- odorant receptor agonist call (OR5AS1 (Homo sapiens)): inactive
- odorant receptor agonist call (OR5AU1 (Homo sapiens)): inactive
- odorant receptor agonist call (OR5B17 (Homo sapiens)): inactive

SMILES: C=CCc1ccc(OC(C)=O)c(OC)c1
- odorant receptor agonist call (OR56A5 (Homo sapiens)): active
- odorant receptor agonist call (OR5A1 [1]): inactive
- odorant receptor agonist call (OR5A1 [2]): active
- odorant receptor agonist call (OR5A1 [3]): inactive
- odorant receptor agonist call (OR5A2 (Homo sapiens)): active
- odorant receptor agonist call (OR5AK2 (Homo sapiens)): inactive
- odorant receptor agonist call (OR5AN1 (Homo sapiens)): inactive
- odorant receptor agonist call (OR5AR1 (Homo sapiens)): inactive
- odorant receptor agonist call (OR5AS1 (Homo sapiens)): inactive
- odorant receptor agonist call (OR5AU1 (Homo sapiens)): inactive

SMILES: CC(=O)OC(C)(C)C1CC=C(C)CC1 (stereo not drawn)
- odorant receptor agonist call (OR56A5 (Homo sapiens)): inactive
- odorant receptor agonist call (OR5A1 [1]): inactive
- odorant receptor agonist call (OR5A1 [2]): inactive
- odorant receptor agonist call (OR5A1 [3]): inactive
- odorant receptor agonist call (OR5A2 (Homo sapiens)): inactive
- odorant receptor agonist call (OR5AC2 (Homo sapiens)): inactive
- odorant receptor agonist call (OR5AK2 (Homo sapiens)): inactive
- odorant receptor agonist call (OR5AN1 (Homo sapiens)): inactive
- odorant receptor agonist call (OR5AR1 (Homo sapiens)): inactive
- odorant receptor agonist call (OR5AS1 (Homo sapiens)): inactive
- odorant receptor agonist call (OR5AU1 (Homo sapiens)): inactive
- odorant receptor agonist call (OR5B17 (Homo sapiens)): inactive

SMILES: CC(=O)OC1CC2CCC1(C)C2(C)C (stereo not drawn)
- odorant receptor agonist call (OR56A5 (Homo sapiens)): inactive
- odorant receptor agonist call (OR5A1 [1]): inactive
- odorant receptor agonist call (OR5A1 [2]): active
- odorant receptor agonist call (OR5A1 [3]): inactive
- odorant receptor agonist call (OR5A2 (Homo sapiens)): inactive
- odorant receptor agonist call (OR5AC2 (Homo sapiens)): inactive
- odorant receptor agonist call (OR5AK2 (Homo sapiens)): inactive
- odorant receptor agonist call (OR5AN1 (Homo sapiens)): inactive
- odorant receptor agonist call (OR5AR1 (Homo sapiens)): inactive
- odorant receptor agonist call (OR5AS1 (Homo sapiens)): inactive
- odorant receptor agonist call (OR5AU1 (Homo sapiens)): inactive
- odorant receptor agonist call (OR5B17 (Homo sapiens)): inactive

SMILES: CC12CCC(CC1)C(C)(C)O2
- odorant receptor agonist call (OR56A5 (Homo sapiens)): inactive
- odorant receptor agonist call (OR5A1 [1]): inactive
- odorant receptor agonist call (OR5A1 [2]): inactive
- odorant receptor agonist call (OR5A1 [3]): inactive
- odorant receptor agonist call (OR5A2 (Homo sapiens)): inactive
- odorant receptor agonist call (OR5AK2 (Homo sapiens)): inactive
- odorant receptor agonist call (OR5AN1 (Homo sapiens)): inactive
- odorant receptor agonist call (OR5AR1 (Homo sapiens)): inactive
- odorant receptor agonist call (OR5AS1 (Homo sapiens)): inactive
- odorant receptor agonist call (OR5AU1 (Homo sapiens)): inactive
- odorant receptor agonist call (OR5B17 (Homo sapiens)): inactive
